From a melanoma drug combination screen (doi:10.1371/journal.pone.0140310); values rounded.

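Human melanoma cells were exposed to two drugs together for 72 h in 1,536-well plates and read by automated microscopy after fixing and staining. The read-out is the fraction of cleaved-PARP-positive nuclei, in % of that fraction in the DMSO control; 200 means twice the control level of this apoptosis marker. Every drug was used at one fixed concentration, the higher of two screened. No replicate spread is given; individual values may be noisy. Basal and induced levels differ widely between cell lines.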 An unselected part of the screen is shown.

All values are for the listed drug together with pioglitazone (10000 nM): CCc1ccc(CCOc2ccc(CC3SC(=O)NC3=O)cc2)nc1 (stereo not drawn)

Drug key:
decitabine: Nc1ncn([C@H]2C[C@H](O)[C@@H](CO)O2)c(=O)n1 at 500 nM
FH535: Cc1cc([N+](=O)[O-])ccc1NS(=O)(=O)c1cc(Cl)ccc1Cl at 5000 nM
docetaxel: CC(=O)O[C@@]12CO[C@@H]1C[C@H](O)[C@@]1(C)C(=O)[C@H](O)C3=C(C)[C@@H](OC(=O)[C@H](O)[C@@H](NC(=O)OC(C)(C)C)c4ccccc4)C[C@@](O)([C@@H](OC(=O)c4ccccc4)[C@H]21)C3(C)C at 0.5 nM
GW0742: Cc1cc(SCc2sc(-c3ccc(C(F)(F)F)c(F)c3)nc2C)ccc1OCC(=O)O at 10000 nM
GW441756: Cn1cc(/C=C2\C(=O)Nc3cccnc32)c2ccccc21 at 2000 nM
tipifarnib: Cn1cncc1[C@@](N)(c1ccc(Cl)cc1)c1ccc2c(c1)c(-c1cccc(Cl)c1)cc(=O)n2C at 50 nM
vatalanib: Clc1ccc(Nc2nnc(Cc3ccncc3)c3ccccc23)cc1 at 10000 nM
NVP-TAE684: COc1cc(N2CCC(N3CCN(C)CC3)CC2)ccc1Nc1ncc(Cl)c(Nc2ccccc2S(=O)(=O)C(C)C)n1 at 400 nM
ruxolitinib: N#CC[C@H](C1CCCC1)n1cc(-c2ncnc3[nH]ccc23)cn1 at 5000 nM
MK-1775: C=CCn1c(=O)c2cnc(Nc3ccc(N4CCN(C)CC4)cc3)nc2n1-c1cccc(C(C)(C)O)n1 at 100 nM
STA-4783: CN(NC(=O)CC(=O)NN(C)C(=S)c1ccccc1)C(=S)c1ccccc1 at 30 nM
SNS-314: O=C(Nc1cccc(Cl)c1)Nc1ncc(CCNc2ncnc3ccsc23)s1 at 4 nM
indole-3-carbinol: OCc1c[nH]c2ccccc12 at 4000 nM
vismodegib: CS(=O)(=O)c1ccc(C(=O)Nc2ccc(Cl)c(-c3ccccn3)c2)c(Cl)c1 at 5000 nM
temozolomide: Cn1nnc2c(C(N)=O)ncn2c1=O at 10000 nM
fingolimod: CCCCCCCCc1ccc(CCC(N)(CO)CO)cc1 at 10000 nM
tamatinib: COc1cc(Nc2ncc(F)c(Nc3ccc4c(n3)NC(=O)C(C)(C)O4)n2)cc(OC)c1OC at 2000 nM
BI-78D3: O=c1[nH]nc(Sc2ncc([N+](=O)[O-])s2)n1-c1ccc2c(c1)OCCO2 at 1000 nM
BMS-536924: Cc1cc(N2CCOCC2)cc2[nH]c(-c3c(NC[C@@H](O)c4cccc(Cl)c4)cc[nH]c3=O)nc12 at 1000 nM
etoposide: COc1cc([C@@H]2c3cc4c(cc3[C@@H](O[C@@H]3O[C@@H]5CO[C@@H](C)O[C@H]5[C@H](O)[C@H]3O)[C@H]3COC(=O)[C@H]23)OCO4)cc(OC)c1O at 100 nM
embelin: CCCCCCCCCCCC1=C(O)C(=O)C=C(O)C1=O at 6000 nM
GSK650394: O=C(O)c1ccc(-c2c[nH]c3ncc(-c4ccccc4)cc23)cc1C1CCCC1 at 800 nM
crizotinib: C[C@@H](Oc1cc(-c2cnn(C3CCNCC3)c2)cnc1N)c1c(Cl)ccc(F)c1Cl at 1000 nM
VX-702: NC(=O)c1ccc(N(C(N)=O)c2c(F)cccc2F)nc1-c1ccc(F)cc1F at 2000 nM
L-779450: Oc1cc(-c2nc(-c3ccccc3)[nH]c2-c2ccncc2)ccc1Cl at 1000 nM
nilotinib: Cc1cn(-c2cc(NC(=O)c3ccc(C)c(Nc4nccc(-c5cccnc5)n4)c3)cc(C(F)(F)F)c2)cn1 at 1000 nM
AS-252424: O=C1NC(=O)/C(=C/c2ccc(-c3ccc(F)cc3O)o2)S1 at 5000 nM
CHIR-265: Cn1c(Nc2ccc(C(F)(F)F)cc2)nc2cc(Oc3ccnc(-c4ncc(C(F)(F)F)[nH]4)c3)ccc21 at 400 nM
vincristine: CC[C@]1(O)C[C@H]2CN(CCc3c([nH]c4ccccc34)[C@@](C(=O)OC)(c3cc4c(cc3OC)N(C=O)[C@H]3[C@@](O)(C(=O)OC)[C@H](OC(C)=O)[C@]5(CC)C=CCN6CC[C@]43[C@@H]65)C2)C1 at 0.5 nM
bexarotene: C=C(c1ccc(C(=O)O)cc1)c1cc2c(cc1C)C(C)(C)CCC2(C)C at 10000 nM
PD173074: CCN(CC)CCCCNc1ncc2cc(-c3cc(OC)cc(OC)c3)c(NC(=O)NC(C)(C)C)nc2n1 at 500 nM

* GW0742 | MeWo: 113; WM451Lu: 66.1; COLO 792: 93.2; A375: 117
* SNS-314 | MeWo: 99.7; WM451Lu: 211; COLO 792: 90.4; A375: 91.6
* etoposide | MeWo: 89.1; WM451Lu: 46.9; COLO 792: 78.4; A375: 155
* BMS-536924 | MeWo: 85.2; WM451Lu: 61.3; COLO 792: 174; A375: 99.1
* crizotinib | MeWo: 140; WM451Lu: 239; COLO 792: 101; A375: 101
* L-779450 | MeWo: 70.6; WM451Lu: 110; COLO 792: 76.9; A375: 131
* tipifarnib | MeWo: 79.4; WM451Lu: 317; COLO 792: 133; A375: 72.0
* fingolimod | MeWo: 536; WM451Lu: 679; COLO 792: 5700; A375: 39.5
* FH535 | MeWo: 76.0; WM451Lu: 474; COLO 792: 184; A375: 249
* GSK650394 | MeWo: 159; WM451Lu: 28.1; COLO 792: 233; A375: 57.2
* BI-78D3 | MeWo: 46.0; WM451Lu: 537; COLO 792: 79.1; A375: 27.1
* nilotinib | MeWo: 110; WM451Lu: 42.4; COLO 792: 70.0; A375: 27.4
* STA-4783 | MeWo: 306; WM451Lu: 167; COLO 792: 625; A375: 92.6
* AS-252424 | MeWo: 34.2; WM451Lu: 51.9; COLO 792: 129; A375: 20.7
* CHIR-265 | MeWo: 78.6; WM451Lu: 336; COLO 792: 716; A375: 72.7
* embelin | MeWo: 65.8; WM451Lu: 51.6; COLO 792: 80.5; A375: 60.4
* GW441756 | MeWo: 77.2; WM451Lu: 404; COLO 792: 65.7; A375: 56.5
* ruxolitinib | MeWo: 150; WM451Lu: 135; COLO 792: 41.8; A375: 108
* VX-702 | MeWo: 43.7; WM451Lu: 172; COLO 792: 55.5; A375: 57.5
* docetaxel | MeWo: 504; WM451Lu: 288; COLO 792: 566; A375: 227
* vatalanib | MeWo: 190; WM451Lu: 165; COLO 792: 116; A375: 153
* tamatinib | MeWo: 71.9; WM451Lu: 216; COLO 792: 169; A375: 137
* temozolomide | MeWo: 70.5; WM451Lu: 102; COLO 792: 170; A375: 76.7
* PD173074 | MeWo: 107; WM451Lu: 103; COLO 792: 45.8; A375: 37.9
* NVP-TAE684 | MeWo: 187; WM451Lu: 117; COLO 792: 110; A375: 205
* vincristine | MeWo: 652; WM451Lu: 3060; COLO 792: 296; A375: 97.0
* vismodegib | MeWo: 187; WM451Lu: 72.7; COLO 792: 62.3; A375: 92.2
* decitabine | MeWo: 179; WM451Lu: 361; COLO 792: 87.6; A375: 87.5
* MK-1775 | MeWo: 144; WM451Lu: 129; COLO 792: 178; A375: 719
* indole-3-carbinol | MeWo: 142; WM451Lu: 57.2; COLO 792: 90.3; A375: 94.2
* bexarotene | MeWo: 93.7; WM451Lu: 27.4; COLO 792: 109; A375: 42.1

Repeated from the top, 4 entries:

Partner,MeWo,WM451Lu,COLO 792,A375
GW0742,113,66.1,93.2,117
SNS-314,99.7,211,90.4,91.6
etoposide,89.1,46.9,78.4,155
BMS-536924,85.2,61.3,174,99.1